Experimental data published in PMC3514159.
These are yes or no findings as the source states them, for the method shown. For part of these data: Binding seen in cells or lysates may run through a third protein. Some entries that bind do so weakly or less than the wild type. For part of these data: Where a sequence is shown, tags or fusion partners need not be part of it.

The chains behind the UniProt entries cited, without tags or fusion partners.
UniProt P28799: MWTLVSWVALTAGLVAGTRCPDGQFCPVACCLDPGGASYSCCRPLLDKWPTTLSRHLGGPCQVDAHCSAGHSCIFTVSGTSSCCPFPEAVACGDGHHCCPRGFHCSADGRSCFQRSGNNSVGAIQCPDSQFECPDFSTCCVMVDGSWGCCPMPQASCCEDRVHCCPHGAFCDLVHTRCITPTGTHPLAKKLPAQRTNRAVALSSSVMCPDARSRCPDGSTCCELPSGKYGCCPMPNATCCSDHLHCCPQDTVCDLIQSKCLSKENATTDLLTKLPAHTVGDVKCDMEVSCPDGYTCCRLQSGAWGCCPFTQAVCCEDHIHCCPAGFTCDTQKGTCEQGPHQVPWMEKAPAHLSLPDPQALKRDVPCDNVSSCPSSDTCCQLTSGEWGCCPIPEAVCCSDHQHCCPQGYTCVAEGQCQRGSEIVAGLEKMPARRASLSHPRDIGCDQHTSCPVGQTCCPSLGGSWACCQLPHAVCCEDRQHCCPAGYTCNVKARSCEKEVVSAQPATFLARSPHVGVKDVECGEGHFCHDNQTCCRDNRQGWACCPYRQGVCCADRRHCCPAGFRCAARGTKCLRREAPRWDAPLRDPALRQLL
UniProt P09022: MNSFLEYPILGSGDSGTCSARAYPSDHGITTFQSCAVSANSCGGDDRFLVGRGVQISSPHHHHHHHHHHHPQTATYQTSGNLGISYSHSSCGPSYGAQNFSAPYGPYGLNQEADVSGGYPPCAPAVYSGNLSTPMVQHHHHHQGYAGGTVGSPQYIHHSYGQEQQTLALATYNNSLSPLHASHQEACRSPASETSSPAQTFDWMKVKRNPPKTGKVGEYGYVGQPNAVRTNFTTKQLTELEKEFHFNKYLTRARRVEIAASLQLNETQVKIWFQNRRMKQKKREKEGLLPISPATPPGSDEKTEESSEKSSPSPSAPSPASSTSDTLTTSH

Columns and labels:
[1] = molecular target: T1, O-linked N-acetylglucosamine (GlcNAc) transferase (human) (UniProt O15294); experiment: pull-down; GST-hORF and FLAG-Hoxa1 co-expressed in COS7 or HEK293T; cleared lysate (Tris-HCl pH7.5 20mM, NaCl 120mM, EDTA 0.5mM, NP40 0.5%, glycerol 10%) overnight on glutathione-agarose beads, 3 washes; anti-FLAG western blot
T1 sequence: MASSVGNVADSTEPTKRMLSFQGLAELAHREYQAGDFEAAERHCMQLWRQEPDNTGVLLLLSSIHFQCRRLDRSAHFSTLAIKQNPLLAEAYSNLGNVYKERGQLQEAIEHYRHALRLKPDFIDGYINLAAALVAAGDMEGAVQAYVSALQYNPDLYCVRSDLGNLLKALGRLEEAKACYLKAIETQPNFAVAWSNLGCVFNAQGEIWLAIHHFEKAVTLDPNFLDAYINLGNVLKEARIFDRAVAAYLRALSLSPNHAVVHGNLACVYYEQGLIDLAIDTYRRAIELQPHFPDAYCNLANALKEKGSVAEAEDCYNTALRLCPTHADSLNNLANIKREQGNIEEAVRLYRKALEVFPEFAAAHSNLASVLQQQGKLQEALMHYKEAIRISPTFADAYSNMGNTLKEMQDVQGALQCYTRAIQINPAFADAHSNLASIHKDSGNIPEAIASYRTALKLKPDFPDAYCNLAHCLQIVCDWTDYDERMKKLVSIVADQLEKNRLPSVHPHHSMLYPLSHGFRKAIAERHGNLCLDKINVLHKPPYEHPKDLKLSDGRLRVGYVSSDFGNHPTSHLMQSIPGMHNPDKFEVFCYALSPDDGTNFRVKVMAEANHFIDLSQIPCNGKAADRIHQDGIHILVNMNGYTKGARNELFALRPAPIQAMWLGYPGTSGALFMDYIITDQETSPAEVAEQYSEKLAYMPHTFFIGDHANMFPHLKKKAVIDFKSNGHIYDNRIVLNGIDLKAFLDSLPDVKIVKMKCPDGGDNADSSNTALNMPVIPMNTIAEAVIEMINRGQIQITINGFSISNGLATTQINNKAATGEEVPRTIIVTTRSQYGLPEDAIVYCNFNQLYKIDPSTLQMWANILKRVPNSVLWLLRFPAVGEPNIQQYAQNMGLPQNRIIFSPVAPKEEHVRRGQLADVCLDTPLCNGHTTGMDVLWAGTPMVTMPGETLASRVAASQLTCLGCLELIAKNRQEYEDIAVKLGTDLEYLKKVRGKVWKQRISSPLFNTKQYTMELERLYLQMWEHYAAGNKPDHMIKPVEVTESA

[2] = molecular target: T2, family with sequence similarity 108, member A1 (human) (UniProt Q96GS6); experiment: two-hybrid; AD-Hoxa1 (Gal4 activation domain) in MATa Y8800 mated with the DB-hORF library in MATα Y8930; 30°C; selection on Sc-L-T-H + 1 mM 3AT, retest on Sc-L-T-H, Sc-L-T-A and Sc-L-T-H-A+3AT
T2 sequence: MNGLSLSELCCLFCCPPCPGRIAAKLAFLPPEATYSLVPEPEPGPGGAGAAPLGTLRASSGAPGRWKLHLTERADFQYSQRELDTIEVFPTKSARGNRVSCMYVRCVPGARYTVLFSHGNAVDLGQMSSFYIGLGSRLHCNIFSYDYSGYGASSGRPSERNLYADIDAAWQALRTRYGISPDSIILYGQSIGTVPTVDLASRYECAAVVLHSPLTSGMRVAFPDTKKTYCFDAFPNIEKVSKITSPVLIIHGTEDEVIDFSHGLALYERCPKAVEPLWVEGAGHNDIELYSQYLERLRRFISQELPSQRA

[3] = molecular target: granulin (human) (UniProt P28799); experiment: as above
[4] = molecular target: T3, MyoD family inhibitor (human) (UniProt Q99750); experiment: as above
T3 sequence: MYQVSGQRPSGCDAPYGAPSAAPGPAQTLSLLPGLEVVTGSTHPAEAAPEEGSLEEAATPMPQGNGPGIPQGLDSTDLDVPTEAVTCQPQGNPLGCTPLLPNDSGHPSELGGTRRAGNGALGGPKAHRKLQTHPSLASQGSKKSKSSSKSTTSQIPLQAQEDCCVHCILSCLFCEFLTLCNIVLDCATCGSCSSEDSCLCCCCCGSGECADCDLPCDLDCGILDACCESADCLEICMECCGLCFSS

[5] = molecular target: T4, keratin associated protein 26-1 (human) (UniProt Q6PEX3); experiment: as above
T4 sequence: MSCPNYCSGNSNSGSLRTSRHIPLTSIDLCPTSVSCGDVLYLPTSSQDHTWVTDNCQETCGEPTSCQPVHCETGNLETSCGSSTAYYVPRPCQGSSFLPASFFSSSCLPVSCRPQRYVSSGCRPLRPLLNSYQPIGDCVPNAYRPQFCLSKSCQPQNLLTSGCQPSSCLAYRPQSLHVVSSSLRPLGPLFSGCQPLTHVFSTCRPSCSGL

[6] = molecular target: T5, keratin associated protein 5-9 (human) (UniProt P26371); experiment: as above
T5 sequence: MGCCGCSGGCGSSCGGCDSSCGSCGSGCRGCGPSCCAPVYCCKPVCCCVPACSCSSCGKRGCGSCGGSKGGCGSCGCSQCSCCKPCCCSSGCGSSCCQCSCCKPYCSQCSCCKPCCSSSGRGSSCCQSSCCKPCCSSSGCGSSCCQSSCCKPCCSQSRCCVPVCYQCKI

Row | binding [1] | binding [2] | binding [3] | binding [4] | binding [5] | binding [6] | Substance
1 | binds | – | – | – | – | – | FLAG-Hoxa1 (from UniProt P09022 1-331)
2 | – | binds | binds | binds | binds | binds | Hoxa1 (from UniProt P09022 1-331)
